Publication PMC9249674, “A small-molecule Skp1 inhibitor elicits cell death by p53-dependent mechanism” (iScience, 2022)
No constants are given. Whether binding was seen depends on the method and setting. Binding seen in cells or lysates may run through a third protein. Some results given as binding are weak or reduced against the parent protein; the word gives no strength. For some assays here: Tags and fused reporters may be left off the sequences shown. Values belong to the binder of their own block, whether it stands above or below them.

Columns and labels:
Flag-Skp1 WT (human) [1] = target: Flag-Skp1 WT (human) (UniProt P63208); assay: co-IP; as a4, cells treated with Z0933M
[2] = target: Skp1 (endogenous, A549 cells) (human (endogenous in A549)) (UniProt P63208); assay: co-IP; endogenous Skp1 immunoprecipitated (protein A/G Plus beads with antibody) from A549 lysates in TNE buffer, Western blot; cells untreated or treated with Z0933M (doses and times, 4 h and 12 h)
Flag-Skp1^F139A (human) = Flag-Skp1^F139A (human) (UniProt P63208); assay: co-IP; A549 cells transiently transfected with Flag-Skp1 WT or mutant plasmids, anti-FLAG M2 magnetic beads, Western blot for endogenous F-box proteins
Flag-Skp1 WT (human) [3] = target: Flag-Skp1 WT (human) (UniProt P63208); assay: as above
Flag-Skp1^F101A (human) = Flag-Skp1^F101A (human) (UniProt P63208); assay: as above
[4] = target: mCherry-Skp1 (N-terminally mCherry-fused Skp1, WT) (human) (UniProt P63208); assay: FRET or BRET; cell-based FRET in HEK293 cells co-transfected with mCherry-Skp1 and copGFP-fused F-box protein, 48 hrs, 96-well format; also with Z0933M (4 hrs) or 6-OAP

- binding [2]: binds
- binding (Flag-Skp1^F139A (human)): binds
- binding (Flag-Skp1 WT (human) [3]): binds
- binding (Flag-Skp1^F101A (human)): binds
B1: cyclin F (endogenous, A549 cells) (protein, UniProt P41002 1-786)
chain: MGSGGVVHCRCAKCFCYPTKRRIRRRPRNLTILSLPEDVLFHILKWLSVEDILAVRAVHSQLKDLVDNHASVWACASFQELWPSPGNLKLFERAAEKGNFEAAVKLGIAYLYNEGLSVSDEARAEVNGLKASRFFSLAERLNVGAAPFIWLFIRPPWSVSGSCCKAVVHESLRAECQLQRTHKASILHCLGRVLSLFEDEEKQQQAHDLFEEAAHQGCLTSSYLLWESDRRTDVSDPGRCLHSFRKLRDYAAKGCWEAQLSLAKACANANQLGLEVRASSEIVCQLFQASQAVSKQQVFSVQKGLNDTMRYILIDWLVEVATMKDFTSLCLHLTVECVDRYLRRRLVPRYRLQLLGIACMVICTRFISKEILTIREAVWLTDNTYKYEDLVRMMGEIVSALEGKIRVPTVVDYKEVLLTLVPVELRTQHLCSFLCELSLLHTSLSAYAPARLAAAALLLARLTHGQTQPWTTQLWDLTGFSYEDLIPCVLSLHKKCFHDDAPKDYRQVSLTAVKQRFEDKRYGEISQEEVLSYSQLCAALGVTQDSPDPPTFLSTGEIHAFLSSPSGRRTKRKRENSLQEDRGSFVTTPTAELSSQEETLLGSFLDWSLDCCSGYEGDQESEGEKEGDVTAPSGILDVTVVYLNPEQHCCQESSDEEACPEDKGPQDPQALALDTQIPATPGPKPLVRTSREPGKDVTTSGYSSVSTASPTSSVDGGLGALPQPTSVLSLDSDSHTQPCHHQARKSCLQCRPPSPPESSVPQQQVKRINLCIHSEEEDMNLGLVRL
- binding (Flag-Skp1 WT (human) [1]): no binding (condition: cells treated with Z0933M)

- binding [4]: binds
B2: NIPA-copGFP (C-terminally copGFP-fused NIPA) (protein, UniProt Q86WB0 1-502)
chain: MAAPCEGQAFAVGVEKNWGAVVRSPEGTPQKIRQLIDEGIAPEEGGVDAKDTSATSQSVNGSPQAEQPSLESTSKEAFFSRVETFSSLKWAGKPFELSPLVCAKYGWVTVECDMLKCSSCQAFLCASLQPAFDFDRYKQRCAELKKALCTAHEKFCFWPDSPSPDRFGMLPLDEPAILVSEFLDRFQSLCHLDLQLPSLRPEDLKTMCLTEDKISLLLHLLEDELDHRTDERKTTIKLGSDIQVHVTACILSVCGWACSSSLESMQLSLITCSQCMRKVGLWGFQQIESSMTDLDASFGLTSSPIPGLEGRPERLPLVPESPRRMMTRSQDATFSPGSEQAEKSPGPIVSRTRSWDSSSPVDRPEPEAASPTTRTRPVTRSMGTGDTPGLEVPSSPLRKAKRARLCSSSSSDTSSRSFFDPTSQHRDWCPWVNITLGKESRENGGTEPDASAPAEPGWKAVLTILLAHKQSSQPAETDSMSLSEKSRKVFRIFRQWESLCSC

- binding [2]: binds
B3: NIPA (endogenous, A549 cells) (protein, UniProt Q86WB0 1-502)
chain: MAAPCEGQAFAVGVEKNWGAVVRSPEGTPQKIRQLIDEGIAPEEGGVDAKDTSATSQSVNGSPQAEQPSLESTSKEAFFSRVETFSSLKWAGKPFELSPLVCAKYGWVTVECDMLKCSSCQAFLCASLQPAFDFDRYKQRCAELKKALCTAHEKFCFWPDSPSPDRFGMLPLDEPAILVSEFLDRFQSLCHLDLQLPSLRPEDLKTMCLTEDKISLLLHLLEDELDHRTDERKTTIKLGSDIQVHVTACILSVCGWACSSSLESMQLSLITCSQCMRKVGLWGFQQIESSMTDLDASFGLTSSPIPGLEGRPERLPLVPESPRRMMTRSQDATFSPGSEQAEKSPGPIVSRTRSWDSSSPVDRPEPEAASPTTRTRPVTRSMGTGDTPGLEVPSSPLRKAKRARLCSSSSSDTSSRSFFDPTSQHRDWCPWVNITLGKESRENGGTEPDASAPAEPGWKAVLTILLAHKQSSQPAETDSMSLSEKSRKVFRIFRQWESLCSC

- binding [2]: binds
B4: KDM2B (endogenous, A549 cells) (protein, UniProt Q8NHM5 1-1336)
chain: MAGPQMGGSAEDHPPRKRHAAEKQKKKTVIYTKCFEFESATQRPIDRQRYDENEDLSDVEEIVSVRGFSLEEKLRSQLYQGDFVHAMEGKDFNYEYVQREALRVPLIFREKDGLGIKMPDPDFTVRDVKLLVGSRRLVDVMDVNTQKGTEMSMSQFVRYYETPEAQRDKLYNVISLEFSHTKLEHLVKRPTVVDLVDWVDNMWPQHLKEKQTEATNAIAEMKYPKVKKYCLMSVKGCFTDFHIDFGGTSVWYHVFRGGKIFWLIPPTLHNLALYEEWVLSGKQSDIFLGDRVERCQRIELKQGYTFFIPSGWIHAVYTPVDSLVFGGNILHSFNVPMQLRIYEIEDRTRVQPKFRYPFYYEMCWYVLERYVYCVTQRSHLTQEYQRESMLIDAPRKPSIDGFSSDSWLEMEEEACDQQPQEEEEKDEEGEGRDRAPKPPTDGSTSPTSTPSEDQEALGKKPKAPALRFLKRTLSNESEESVKSTTLAVDYPKTPTGSPATEVSAKWTHLTEFELKGLKALVEKLESLPENKKCVPEGIEDPQALLEGVKNVLKEHADDDPSLAITGVPVVTWPKKTPKNRAVGRPKGKLGPASAVKLAANRTTAGARRRRTRCRKCEACLRTECGECHFCKDMKKFGGPGRMKQSCIMRQCIAPVLPHTAVCLVCGEAGKEDTVEEEEGKFNLMLMECSICNEIIHPGCLKIKESEGVVNDELPNCWECPKCNHAGKTGKQKRGPGFKYASNLPGSLLKEQKMNRDNKEGQEPAKRRSECEEAPRRRSDEHSKKVPPDGLLRRKSDDVHLRKKRKYEKPQELSGRKRASSLQTSPGSSSHLSPRPPLGSSLSPWWRSSLTYFQQQLKPGKEDKLFRKKRRSWKNAEDRMALANKPLRRFKQEPEDELPEAPPKTRESDHSRSSSPTAGPSTEGAEGPEEKKKVKMRRKRRLPNKELSRELSKELNHEIQRTENSLANENQQPIKSEPESEGEEPKRPPGICERPHRFSKGLNGTPRELRHQLGPSLRSPPRVISRPPPSVSPPKCIQMERHVIRPPPISPPPDSLPLDDGAAHVMHREVWMAVFSYLSHQDLCVCMRVCRTWNRWCCDKRLWTRIDLNHCKSITPLMLSGIIRRQPVSLDLSWTNISKKQLSWLINRLPGLRDLVLSGCSWIAVSALCSSSCPLLRTLDVQWVEGLKDAQMRDLLSPPTDNRPGQMDNRSKLRNIVELRLAGLDITDASLRLIIRHMPLLSKLHLSYCNHVTDQSINLLTAVGTTTRDSLTEINLSDCNKVTDQCLSFFKRCGNICHIDLRYCKQVTKEGCEQFIAEMSVSVQFGQVEEKLLQKLS
